Data taken from publication PMC6224608.
Results are given in words; binding and its absence hold for the method and conditions named. A result given as binding can be weak or reduced; the word gives no strength. Tags and fused reporters may be left off the sequences shown.

By UniProt entry, the sequences of proteins in these tests, tags left out. Where a name states a change or a piece, a line headed by the entry shows the natural chain unless it says otherwise.
UniProt Q20849: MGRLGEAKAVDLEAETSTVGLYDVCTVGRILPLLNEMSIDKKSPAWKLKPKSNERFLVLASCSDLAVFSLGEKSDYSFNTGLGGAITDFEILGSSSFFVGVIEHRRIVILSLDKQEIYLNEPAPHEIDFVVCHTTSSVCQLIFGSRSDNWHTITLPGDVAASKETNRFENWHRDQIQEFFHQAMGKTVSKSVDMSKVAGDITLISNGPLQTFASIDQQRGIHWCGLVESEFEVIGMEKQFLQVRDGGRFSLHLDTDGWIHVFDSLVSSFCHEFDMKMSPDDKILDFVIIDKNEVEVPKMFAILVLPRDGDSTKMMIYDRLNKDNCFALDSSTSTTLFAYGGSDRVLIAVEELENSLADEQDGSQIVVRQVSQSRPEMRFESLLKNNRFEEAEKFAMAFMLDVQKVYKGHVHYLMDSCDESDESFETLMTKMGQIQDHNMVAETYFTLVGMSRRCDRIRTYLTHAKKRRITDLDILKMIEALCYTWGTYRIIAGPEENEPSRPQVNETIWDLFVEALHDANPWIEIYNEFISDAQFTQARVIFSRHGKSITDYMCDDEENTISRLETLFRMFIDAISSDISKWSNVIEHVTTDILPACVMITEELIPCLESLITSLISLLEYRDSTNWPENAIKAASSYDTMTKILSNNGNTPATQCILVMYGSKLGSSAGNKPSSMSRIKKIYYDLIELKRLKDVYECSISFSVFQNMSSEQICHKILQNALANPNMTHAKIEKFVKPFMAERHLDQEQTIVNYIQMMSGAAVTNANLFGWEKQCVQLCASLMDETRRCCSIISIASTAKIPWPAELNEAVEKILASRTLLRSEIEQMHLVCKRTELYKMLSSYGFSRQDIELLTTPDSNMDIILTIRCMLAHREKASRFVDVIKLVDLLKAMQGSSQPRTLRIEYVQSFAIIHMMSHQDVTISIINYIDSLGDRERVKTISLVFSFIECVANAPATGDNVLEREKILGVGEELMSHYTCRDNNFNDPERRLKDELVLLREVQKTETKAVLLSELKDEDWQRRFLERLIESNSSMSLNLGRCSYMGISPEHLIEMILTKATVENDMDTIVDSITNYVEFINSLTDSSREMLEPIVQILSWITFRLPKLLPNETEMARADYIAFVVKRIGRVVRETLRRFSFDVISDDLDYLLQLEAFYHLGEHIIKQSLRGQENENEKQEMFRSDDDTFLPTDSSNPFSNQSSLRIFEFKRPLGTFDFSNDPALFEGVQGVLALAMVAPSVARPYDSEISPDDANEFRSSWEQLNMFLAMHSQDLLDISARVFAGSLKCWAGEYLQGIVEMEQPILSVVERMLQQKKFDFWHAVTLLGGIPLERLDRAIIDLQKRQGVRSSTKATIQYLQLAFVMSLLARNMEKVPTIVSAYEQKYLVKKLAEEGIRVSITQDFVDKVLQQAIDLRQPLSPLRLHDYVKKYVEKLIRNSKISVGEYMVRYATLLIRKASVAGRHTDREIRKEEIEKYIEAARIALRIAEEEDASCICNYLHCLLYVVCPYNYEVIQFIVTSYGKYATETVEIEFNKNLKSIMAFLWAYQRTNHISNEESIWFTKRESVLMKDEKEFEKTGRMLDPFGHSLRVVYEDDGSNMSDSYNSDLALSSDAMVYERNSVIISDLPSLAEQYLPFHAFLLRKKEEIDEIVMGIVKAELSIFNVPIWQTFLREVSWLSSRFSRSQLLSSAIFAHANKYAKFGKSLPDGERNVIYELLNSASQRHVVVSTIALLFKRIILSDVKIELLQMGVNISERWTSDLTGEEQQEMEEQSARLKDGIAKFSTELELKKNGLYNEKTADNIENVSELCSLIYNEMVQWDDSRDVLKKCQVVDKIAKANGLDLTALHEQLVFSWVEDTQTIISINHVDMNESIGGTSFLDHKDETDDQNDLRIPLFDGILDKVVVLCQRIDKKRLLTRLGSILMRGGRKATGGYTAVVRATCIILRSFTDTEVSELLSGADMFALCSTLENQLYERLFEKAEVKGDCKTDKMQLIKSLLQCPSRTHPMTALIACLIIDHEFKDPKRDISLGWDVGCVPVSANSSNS

Key:
Assay in all cases: SEC; co-expressed in Sf21 cells; nickel affinity by the 6xHis on ROD-1, then Superose 6 10/300 in 25 mM HEPES, 150 mM NaCl, pH 7.5; Coomassie-stained gels of the fractions
[1] = target: 6xHis::TEV::GFP::ROD-1 (residues 1-2177) (C. elegans) (UniProt Q20849)
[2] = target: 6xHis::TEV::GFP::ROD-1(Δ1-372) (C. elegans)
[3] = target: 6xHis::TEV::ROD-1(Δ1-372) (C. elegans)

| Binder | binding [1] | binding [2] | binding [3] |
| --- | --- | --- | --- |
| StrepTagII::CZW-1 (protein, UniProt Q19642 1-778) MASSEGSYRDLEKKLKNGLTSISQDIVDKYGNLKVSLNVNATAKLIFDRLENLEDIAEMSTRNLSNLIDQTAKDSPEMLAEIKSQAQSCENLVEFLQSMKNVEEQLIIMRSKTTNRVEWGTAILACKDFLNDTNMLLEGIGRDGFDMSVPLKHFAAEYSVLSYNCRYQLSADYERAMNVPKLSKQKCGDRTNVSFSVFNVGSVEDQKMLNETLSAMNMIGQLPERLDAWKIVILNVFCEAIVASRDGVDVYIVDNPTPDQTRFLINQKPRGKKDKTIDVAKVLESMEVFFTKLHSVLHSHELLDATGKTFTSMIGSVIEEQLITMILKDVIAIAAPVTETADEDQEMFINLLQIGEVFVERMKELGFFSQKAKLLFTLDTDTIFVTRRCFAIVSKANKLINETYDKLVTVGVDDSAIKDIDLLAKAHTHAEHFAKEYGKDLGRLWSHNEDSQFPSFFAFQKCTVSESTINFVNLLRDNVKAAFACEDEGARAKLALTAENIVRLYVILTPRKHAELFSSIPNMAAIFYNNCHYISHCIMTMSFEASGDNQKTLLEPLLLDSVIRLRTVAADCMEKTLTRCRREMTAYLEDHSIFEHLPASYKTTKNTFAAAEEMSESADILVPREEPKIIKCLAACLLHIRLIAKNLREPLTEVVYCKVIGSLVSFLLDSLVRHVVTTSDFRENDANVMADVFKRLLEVVANIVAYKEQTKVTDFCAREYFRLNEIVFVLGNRMQDIEHRWFNAKGPMAEHLSRSEVVGLIKALFADSQHRSDLIARL | binds | binds | binds |
| ZWL-1 (protein, UniProt Q95XP9 1-630) MPLTIEQLKQYNEKMAAKGEEDDAPAPVLLLDKYRVRVLPLTSIPFVMNHSSVSQLSLSSEDVLVVDFPSKGTGSGAGKAEKKMIFKKKIEPMEDSFEDKENVNEGGPLMTSFLTLEKLRKGMVGDVEIIGYECETSFFDANPIPLSDGVSLQRYIRLNCSEHFSPSISTLPVWISTTSSKFPSICWLAAGRTNRNVQFAAATRVLGHFNNENSERVVKQLNQACGTSQLNKYRAVYEEIRKIATENRPAPGEVTIDVRWSTKSTLVLLEHPDNAADCTIKIDLGWGDKRFFVDDEIFEQLFFVLNLADVLANPDNEVIFPMAPPANFDDLVQEMDALVEASSREDNVFVSNENFRGGDITDKVWNIVRKCNDVKQVTLLFRNFLQALAYGKIKSHAQERNKSHLASLIRISKSSEFKIPVLERLSTIDMMMEIGVESLRRRVIDIFSSQLLYPSDELEFILQTCENDLPAGNGAMNSAAISLLPITMALATANRIYELLNEKDHVILPDLTRRILQKYTASMIEKSRRGETETEYTFETTLPLLRMYKEGFMSKRPCIWTCENSNTVGANVQARVLTSLELQPSLEHINRLVNDSRPVWTATEEKPAMIKDLNADYTVVHTIFSYLPKM | binds |  |  |
